# Results taken from the supplement of paper PMC3334620.
# Whole data set: some 33,000 sequences, median “E-score (-0.5 to 0.5)” near -8e-05, cut for the highest 2% near 0.23. The list shows a part of the results.
# Target: T1, Nrg2 (UniProt P38082)
# T1 sequence: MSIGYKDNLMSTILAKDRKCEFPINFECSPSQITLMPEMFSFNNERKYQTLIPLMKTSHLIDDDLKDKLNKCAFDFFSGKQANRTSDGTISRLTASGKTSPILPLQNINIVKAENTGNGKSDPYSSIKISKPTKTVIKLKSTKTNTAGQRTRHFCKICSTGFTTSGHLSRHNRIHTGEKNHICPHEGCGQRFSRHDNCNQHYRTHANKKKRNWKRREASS
# Assay: PBM E-score (8-mer binding enrichment) (E-score (-0.5 to 0.5)); higher = stronger / more preferred TF binding
# Details: protein concentration: 100 nM; construct: GST-full length
# Procedure: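 Universal 'all 10-mer' protein binding microarrays (Agilent AMADID 015681) probed with GST-tagged S. cerevisiae TFs (full-length or DBD) made by in vitro transcription/translation (PURExpress), about 100-200 nM. Bound TF was detected with fluorescent anti-GST. Each ungapped 8-mer (which stands for itself and its reverse complement) is scored by the PBM enrichment score (E-score), a modified Wilcoxon-Mann-Whitney statistic from -0.5 to +0.5, computed with the Universal PBM Analysis Suite. Scale: above 0.35 generally sequence-specific binding.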
row,Sequence,PBM E-score
1,ACCTACCC,-0.0864
2,AAGAGAGG,-0.015
3,GAAAAGTC,-0.0781
4,AGAATGCT,0.108
5,AAATGTTG,-0.25
6,TACATGGA,0.0188
7,CCAGCCAC,-0.0358
8,CCCCGTAA,0.0183
9,GAGCCTAC,-0.161
10,ATGAAACG,0.135
11,ATTATTGA,0.00926
12,AGGGTTGC,0.0768
13,CAAGCGCC,-0.196
14,CACAGGAC,0.104
15,AGTAGTTC,0.207
16,ACCTAGAG,-0.207
17,GTCGGGCA,-0.175
18,AAATCGAT,0.152
19,ACTTTAGG,-0.198
20,CTTTGCAA,0.036
21,GGCGCTAA,-0.0159
22,CCTCTCAG,-0.0635
23,GACTCCGC,-0.167
24,AGACGTTG,0.0906

row,Sequence,PBM E-score
1,ACCCGTTG,-0.0284
2,ACCGGAAC,0.107
3,CGGTCAAC,-0.0206
4,GACAACCA,0.122
5,CAACTGAG,0.139
6,ACTTCAGA,-0.0595
7,TAGCGCCA,-0.0778
8,TAGGGATA,0.134
9,GAAGCCGA,0.0509
10,AGACGCCG,0.0759
11,GGCATCGA,-0.146
12,CGGCCCAC,-0.228
13,AATACACA,0.0795
14,CCCTCCGC,-0.145
15,ATGTGGAA,0.117
16,GGAATAAC,0.132
17,CTGGTTAA,-0.00464
18,CCTCTTAG,0.139
19,CTCGTACA,0.0795
20,TAGTTTGA,0.0895
21,TATTCACA,0.155
22,CGGGAATC,0.104
23,GCTGGGCC,-0.212
24,CACTCGCG,0.0216

row,Sequence,PBM E-score
1,GAGAAACC,-0.0126
2,CTATCCCA,-0.0914
3,ACCTATGG,0.0508
4,AGTAATTA,0.208
5,CCTCCTTA,-0.372
6,AGACGAGG,-0.0855
7,TAAACGTA,0.0621
8,AACTCTTC,-0.106
9,ATCGCGTA,0.0399
10,ATAACGCC,0.0631
11,ACTGTTCG,-0.0364
12,ACGTGTGA,-0.126
13,AACCGGTG,-0.0857
14,GTCGATTA,0.073
15,TCACGTAA,-0.164
16,CGGCCAAA,-0.075
17,CACCGCTA,-0.0122
18,ATTGTTAA,0.0152
19,CTGTTAAG,-0.146
20,AACTGTGT,0.159
21,GCTTGACA,-0.0904
22,AGCAAGCA,-0.0877
23,GACGCTGA,-0.0859
24,ACGGCCAT,-0.152

row,Sequence,PBM E-score
1,GCCCCCGC,-0.181
2,GGTTACCA,-0.00207
3,CGAGCAAC,0.0789
4,TCCATGAA,0.0917
5,GTAGCGGA,0.101
6,ATTGGCAA,0.18
7,CTGGTCGC,-0.00893
8,CGTCGGGA,0.00615
9,ATTTCCCG,0.264
10,ACGCGGAT,0.0594
11,AAAGCGCT,0.217
12,ATCACGCA,-0.0888
13,TAGAGGAA,-0.126
14,AGAGTGTA,-0.123
15,AAAGGTCT,-0.161
16,ATAGAACA,0.0998
17,CCTGTTAA,0.0833
18,AGCGGCAG,-0.121
19,CCAATCAG,-0.0574
20,CGTCACTA,0.165
21,ATGTACTA,0.155
22,ACTAAGGC,-0.0854

# Four entries from above, bar-delimited.
row | Sequence | PBM E-score
1 | GCCCCCGC | -0.181
9 | ATTTCCCG | 0.264
15 | AAAGGTCT | -0.161
18 | AGCGGCAG | -0.121
